For two substances, binding results are on record in article PMC8899586.

Amino acid sequences for entries named in this document (tags omitted).
UniProt Q9UQL6: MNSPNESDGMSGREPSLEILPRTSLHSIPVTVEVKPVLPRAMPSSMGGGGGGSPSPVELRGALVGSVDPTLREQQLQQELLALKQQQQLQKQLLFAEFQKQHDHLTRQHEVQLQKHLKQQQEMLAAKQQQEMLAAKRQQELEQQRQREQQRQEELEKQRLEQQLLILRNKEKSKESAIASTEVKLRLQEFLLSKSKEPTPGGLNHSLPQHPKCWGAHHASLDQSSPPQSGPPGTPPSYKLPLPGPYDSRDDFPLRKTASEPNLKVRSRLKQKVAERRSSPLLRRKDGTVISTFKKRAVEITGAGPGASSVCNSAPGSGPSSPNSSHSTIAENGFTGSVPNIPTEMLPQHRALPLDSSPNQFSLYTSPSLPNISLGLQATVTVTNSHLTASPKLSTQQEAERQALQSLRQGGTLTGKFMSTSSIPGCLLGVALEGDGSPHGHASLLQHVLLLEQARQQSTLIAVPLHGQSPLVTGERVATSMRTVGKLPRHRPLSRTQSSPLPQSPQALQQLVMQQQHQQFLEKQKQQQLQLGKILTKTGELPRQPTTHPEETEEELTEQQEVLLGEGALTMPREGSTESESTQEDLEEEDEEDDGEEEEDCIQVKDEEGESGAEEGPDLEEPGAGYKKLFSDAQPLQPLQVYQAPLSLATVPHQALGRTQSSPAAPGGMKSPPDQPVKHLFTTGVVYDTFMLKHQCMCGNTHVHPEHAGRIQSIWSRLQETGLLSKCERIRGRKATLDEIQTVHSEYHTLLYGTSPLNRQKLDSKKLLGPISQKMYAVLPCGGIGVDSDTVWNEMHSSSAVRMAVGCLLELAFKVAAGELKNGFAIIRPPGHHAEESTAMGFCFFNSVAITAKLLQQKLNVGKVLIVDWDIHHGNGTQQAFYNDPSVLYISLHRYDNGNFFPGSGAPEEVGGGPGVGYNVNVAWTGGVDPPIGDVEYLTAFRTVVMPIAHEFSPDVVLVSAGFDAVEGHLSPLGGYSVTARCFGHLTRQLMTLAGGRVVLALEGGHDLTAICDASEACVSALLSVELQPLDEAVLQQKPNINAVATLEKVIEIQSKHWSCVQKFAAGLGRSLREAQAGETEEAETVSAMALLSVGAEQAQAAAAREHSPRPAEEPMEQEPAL

No constants are given. Whether binding was seen depends on the method and setting. Binding seen in cells or lysates may run through a third protein. Some results given as binding are weak or reduced against the parent protein; the word gives no strength.

For assay [1], the target named is HDAC5 (human (endogenous in PANC-1)) (UniProt Q9UQL6). In words: co-IP; endogenous proteins in PANC-1 lysate, reciprocal co-IP (Figure 3C); also WCL with or without λ-phosphatase (Figure 4B) and cells treated with staurosporine 1 µM or DMSO for 24 h (Figure 4I).
The target of another assay is Flag-HDAC5 (UniProt Q9UQL6). The assay is described as follows: co-IP; PANC-1 cells transfected with HDAC5 plasmid, harvested 48 h later; lysis buffer 20 mM Tris pH 7.5, 150 mM NaCl, 1% Triton X-100; protein A/G agarose, 4 °C overnight; western blot (Figure 3B); also with DMSO or TNF-α for 24 h (Figure 4A).
For another assay, the target named is Flag-p65 (S311A) (UniProt Q04206). In words: co-IP; PANC-1 cells transfected with p65 plasmids (WT, S311A) for 48 h; western blot (Figure 4F).
Another assay has as its target WT Flag-p65 (UniProt Q04206). The assay is described as above.
A further assay has as its target GST-p65-C-terminus (UniProt Q04206). In words: pull-down; GST-p65-C and mutated GST-p65-C recombinant proteins on Glutathione-Sepharose beads, incubated with PANC-1 whole cell lysate, 4 °C 8 h; western blot of HDAC5 (Figure 4E); only the target purified.

With NF-κB p65 (from UniProt Q04206 1-551), the binding entry (in assay [1]; with Flag-HDAC5) was “binds” throughout.
As to “HDAC5 (from UniProt Q9UQL6 1-1122) (enzyme)”, the binding entry in the assay with Flag-p65 (S311A), with WT Flag-p65 and with GST-p65-C-terminus was “binds” each time.
